Taken from: PubChem BioAssay AID602196 (INSERM, 2012)
This is a random part of about 23,000 deposited reagents. Over the whole deposit, 455 (2%) are marked active. 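Active includes both protection and sensitisation; some change values fall well beyond the stated -50 to +50 range.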 Not stated in the record: the amount of reagent.

Screen: 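Genes whose knock-down alters cisplatin killing of lung cancer cells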
Cell system: human A549 lung cancer cells
Reagents: siRNA pair against human genes
Duration: 48 h transfection before cisplatin; time from cisplatin to read-out not stated
Challenge: cisplatin at a dose killing half of control-siRNA cells; exact dose and duration not given
Read-out: 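Shift in cisplatin death relative to control siRNA, from -50 (all cells die) to +50 (no cells die); siRNAs harmful on their own scored 0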
Scale: two-siRNA summed score (-2 to +2): higher = both siRNAs protect from cisplatin killing; -2 means both sensitise; mean protection from cisplatin (shift in death) and protection from cisplatin (shift in death), siRNA C and protection from cisplatin (shift in death), siRNA D: higher = protection from cisplatin killing
Rule for the call: 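Each siRNA scores 0 if harmful alone by LDH or WST-1, otherwise +1 if it reduces and -1 if it increases cisplatin killing; a gene is active when both siRNAs agree (sum +2 or -2)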
Calls: active = both siRNAs shift cisplatin killing the same way; inactive = no consistent shift, or siRNA harmful alone

Gene	two-siRNA summed score (-2 to +2)	mean protection from cisplatin (shift in death) (%)	protection from cisplatin (shift in death), siRNA C (%)	protection from cisplatin (shift in death), siRNA D (%)	Outcome
OR8D4	1	13.3	16.6	10	inactive
RNF122	1	-1.7	-20	16.6	inactive
PIH1D2	0	1.2	1.4	1.1	inactive
PRDM11	0	2.4	-15.1	20	inactive
FAM209A	1	14.4	23.3	5.5	inactive
LOC387705	2	17.8	14.2	21.3	active
MOB3C	0	1.8	6.5	-2.8	inactive
MRPL10	1	3.3	-7.3	14	inactive
MGAT3	1	5.4	-4	14.7	inactive
PRR11	0	0.6	-1.2	2.3	inactive
FKBP6	1	11.5	13.4	9.6	inactive
GIT2	0	0.7	-15.2	16.5	inactive
KCNJ6	-1	-28	-14.6	-41.3	inactive
MSN	0	-9.5	-11.6	-7.4	inactive
LOC402554	0	2	1.5	2.5	inactive
COL4A4	-1	-7.5	-30.5	15.6	inactive
LOC440202	2	16.1	22.2	10.1	active
CBY2	0	0.1	-9.9	10.1	inactive
NEDD4L	0	7.4	5.4	9.4	inactive
DHX29	0	14.2	4.3	24.2	inactive
C1QTNF9B	0	16.5	6.5	26.6	inactive
FGFR4	0	2.6	23.6	-18.3	inactive
TDG	0	5.6	5	6.3	inactive
